Test results published in publication doi:10.64898/2025.12.06.692764.
No constants are given. Whether binding was seen depends on the method and setting. In cells and extracts the contact can be indirect. Some binding calls cover weakened binding; strength is not graded here.

The chains behind the UniProt entries cited, without tags or fusion partners.
UniProt Q91YH6: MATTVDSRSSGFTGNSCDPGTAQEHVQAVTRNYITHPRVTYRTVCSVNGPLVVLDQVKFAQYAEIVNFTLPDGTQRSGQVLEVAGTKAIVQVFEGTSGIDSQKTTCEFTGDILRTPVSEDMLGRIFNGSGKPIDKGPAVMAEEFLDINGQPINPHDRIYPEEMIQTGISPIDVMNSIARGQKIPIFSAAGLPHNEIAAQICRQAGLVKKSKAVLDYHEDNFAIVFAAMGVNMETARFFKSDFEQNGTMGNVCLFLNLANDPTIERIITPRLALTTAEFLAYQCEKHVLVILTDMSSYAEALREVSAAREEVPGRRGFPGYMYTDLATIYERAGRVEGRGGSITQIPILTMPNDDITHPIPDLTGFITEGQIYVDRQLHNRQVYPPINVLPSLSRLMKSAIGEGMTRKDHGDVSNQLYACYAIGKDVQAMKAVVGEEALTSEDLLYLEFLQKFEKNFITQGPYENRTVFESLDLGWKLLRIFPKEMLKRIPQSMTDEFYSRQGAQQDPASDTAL

Target: vATPase subunit B1 (mouse (endogenous in inguinal fat)) (UniProt Q91YH6)
Assay: proximity ligation

- binding: binds
B1: NCOA7 (protein, UniProt Q6DFV7 1-943)
chain: MDTKEEKKEQKERKQSYFARLKKKKQAKQNAEIVSAASSKSRSGKDDANSDILEQDKFNVTAEGDHSTDDKKKRKSNQLKEIRRTELKRYYSVDDNQNKTHDKKEKKMMVQKPQGTMEYTAGSQDTLNSVALKFNVTPNKLVELNKLFTHTIVPGQVLFVPDANISSSTIQLSSSTPGATVSPSSSDAEYDKLPDADLARKALKPIERVLSSTSEEDEPGVVKFLKMNCRYFTDGKGVVGGVMIVTPNNIMFDPHKSDPLVIENGCEEYGLICPMEEVVSIALYSDISHMKIKDALPSDLPRDLCPLYRPGEWEDLASEKDINPFSKFKSINKEKRQQNGERTLALDAKSVRSPEESTERTCTRIEPPDNSELWKLKNLQSSRGTTSESPSVTQLSMRAALEPTAKENCLLKGDEDFVDLEELSSQPESGINKGDATKECLSYDQKKDGPHTVMSAKKGHVQSAQEVMGPESDTELKGALDLETAEKQDEAPEVDKHSGSPENLGESTLNIHEDLDKIKLIEFYLNKNKEGSQLLENVQKSELSDRKSIEPGGIDITLSSSLPQAGDSPPEDNKEPGTLWVKGGETLPLKLDPSAEETVINNKEVLDSLGSSLDKMCHSAQMDNKSEIQLWLLKRIQVPIEDILPSKEEKSKTPPMFLCIKVGKPMRKSFASHTATMVQQYSKRRKQPEYWFAVPRERVDHLYTFFVQWSPDVYGKDAKEQGFVVVEKEELNMIDNFFSEPTTKSWEIITVEEAKRRKSTCSYYEEEEEEEEGLPILQPHSALLENMHIEQLARRLPARVQGYPWRLAYSTLEHGTSLKTLYRKSASLDSPVLLVIKDMDNQIFGAYATHPFKFSDHYYGTGETFLYTFSPNFKVFKWSGENSYFINGDISSLELGGGGGRFGLWLDADLYHGRSNSCSTFNNDILSKKEDFIVQDLEVWTFE
